The exact form of at least one protein or probe is not confirmed. At least one result comes from cells or an extract, where the contact may be indirect. No signal at the amounts used counts as a negative. Weaker means in comparison with the reference protein, sequence or condition of that experiment.
Test system: TCF-4 (Jurkat nuclear extract) + beta-catenin (Jurkat nuclear extract)
Assay: EMSA
Details: 10 mM Tris-HCl pH 7.5, 50 mM NaCl, 1 mM MgCl2, 0.5 mM EDTA, 0.5 mM DTT, 4% glycerol, 50 ug/ml poly(dI-dC), 8 ug nuclear extract, room temperature, 30 min, protein in an extract, label: 32P 5'-end

Chains of the proteins cited; added tags and fusions are not shown. A line that says so, or that is headed by a name, gives the form on record, which may keep a tag or linker.
TCF-4 (Jurkat nuclear extract) + beta-catenin (Jurkat nuclear extract), one chain, as listed by the source, chain 1 of 2: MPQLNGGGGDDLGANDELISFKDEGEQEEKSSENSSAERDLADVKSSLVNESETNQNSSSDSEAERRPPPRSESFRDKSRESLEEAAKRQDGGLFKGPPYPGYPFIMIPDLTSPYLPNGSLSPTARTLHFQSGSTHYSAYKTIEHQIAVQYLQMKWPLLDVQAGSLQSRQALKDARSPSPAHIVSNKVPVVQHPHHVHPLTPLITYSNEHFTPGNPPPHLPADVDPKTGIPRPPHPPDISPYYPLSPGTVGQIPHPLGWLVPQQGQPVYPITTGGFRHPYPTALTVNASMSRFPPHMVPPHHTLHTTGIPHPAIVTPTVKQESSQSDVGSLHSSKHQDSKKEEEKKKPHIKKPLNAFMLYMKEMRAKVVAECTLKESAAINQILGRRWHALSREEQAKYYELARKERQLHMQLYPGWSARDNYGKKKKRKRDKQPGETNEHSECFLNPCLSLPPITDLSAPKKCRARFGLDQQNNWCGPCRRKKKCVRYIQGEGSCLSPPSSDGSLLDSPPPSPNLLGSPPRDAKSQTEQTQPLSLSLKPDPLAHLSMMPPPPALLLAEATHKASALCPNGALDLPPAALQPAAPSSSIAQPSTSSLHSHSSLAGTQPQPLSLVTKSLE
TCF-4 (Jurkat nuclear extract) + beta-catenin (Jurkat nuclear extract), one chain, as listed by the source, chain 2 of 2: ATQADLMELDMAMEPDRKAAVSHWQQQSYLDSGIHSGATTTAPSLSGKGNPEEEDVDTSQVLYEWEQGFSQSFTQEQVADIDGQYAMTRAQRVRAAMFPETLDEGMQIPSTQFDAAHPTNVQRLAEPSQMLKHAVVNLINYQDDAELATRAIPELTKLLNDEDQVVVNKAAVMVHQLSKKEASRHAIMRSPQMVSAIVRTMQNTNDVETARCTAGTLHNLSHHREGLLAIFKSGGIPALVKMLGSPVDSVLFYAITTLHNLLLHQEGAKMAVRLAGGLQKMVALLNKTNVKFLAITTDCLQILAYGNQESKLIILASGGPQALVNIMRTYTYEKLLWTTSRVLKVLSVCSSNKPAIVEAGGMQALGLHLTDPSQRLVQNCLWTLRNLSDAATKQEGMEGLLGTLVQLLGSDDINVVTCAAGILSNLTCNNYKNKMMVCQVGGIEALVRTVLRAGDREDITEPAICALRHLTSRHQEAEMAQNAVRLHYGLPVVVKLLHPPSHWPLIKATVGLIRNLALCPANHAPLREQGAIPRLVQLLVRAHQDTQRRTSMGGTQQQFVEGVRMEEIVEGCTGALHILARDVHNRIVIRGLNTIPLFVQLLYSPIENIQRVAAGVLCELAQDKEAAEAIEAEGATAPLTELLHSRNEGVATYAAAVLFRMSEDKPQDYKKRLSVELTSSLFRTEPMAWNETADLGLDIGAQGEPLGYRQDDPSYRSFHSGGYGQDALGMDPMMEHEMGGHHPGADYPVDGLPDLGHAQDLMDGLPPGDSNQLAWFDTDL

| Sequence | binding result | binding result (almost lost binding) |
| --- | --- | --- |
| GCGAAATCCAAACCAGCT (double strand) [mTBE1] | no binding | – |
| GTGGGTGTTTGTTTGAGA (double strand) [mTBE2 (-205G allele)] | – | binds more weakly |

Reference: article PMC3191176
